These results are taken from PubChem BioAssay AID1347426 (Functional Genomics Laboratory (NCATS/FGL), 2020).

Hit rate of the full screen: of about 31,000 sequences, about 1,400 (4.5%) were called active.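 Rule for the calls: active = median seed-adjusted z-score above 1 or below -1; inactive = the rest.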 The list shows a part of the results.

The assay in a line: Novel Modifiers of Survival Motor Neuron (SMN) Protein: Gene Identification via Genome-wide siRNA Screen.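 Note: luminescence tracks full-length SMN protein made from the SMN2 reporter.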 The note with it: HEK293T SMN2-luciferase reporter, siRNA knockdown, 72 h; actives lie on both sides. Put shortly: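 HEK293T cells stably carrying an SMN2 promoter/splicing cassette–luciferase reporter were reverse-transfected with 1 pmol siRNA per well (druggable-genome library, 3 siRNAs per gene) and grown 72 h at 37 °C. Luminescence, normalized to negative-control siRNA and log10-transformed, was scored as MAD.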
(A reporter such as luciferase makes a cellular process visible.)
Regarding GAGUUAGGGAAAAAGCGUATT against ANK3, the median seed-adjusted z-score was inactive: 0.0252.

As for UGAGAUCGCUGUCAUGUUATT against PSMD10, the median seed-adjusted z-score is inactive: 0.265.

With GGAGCGACACGCUAAUUCATT against SSH2, the median seed-adjusted z-score was inactive: 0.357.

CAAUUGACCAGAUUAACAATT against GRM8: the median seed-adjusted z-score is inactive: 0.129.

On to CCAGCCCUGUGCUCUCUUATT against FBXL6, for which the median seed-adjusted z-score is inactive: -0.182.

With GGCCCAGAAUGAUACUACATT against MAK10, the median seed-adjusted z-score is inactive: 0.124.

For the sequence UCCUUGUGCUGGAUCUACATT against PCDHA9, the median seed-adjusted z-score was inactive: -0.295.

Consider CCACGAUAUUGUAAACAGATT against CPSF3, for which the median seed-adjusted z-score was inactive: -0.918.

With GGUGCGGAGAGAUGAGAUATT against PPM1M, the median seed-adjusted z-score was inactive: 0.

For GCGACUCAAUGGACGGAGATT against ZNF282, the median seed-adjusted z-score is inactive: 0.274.

For the sequence GGAUGUCAUCGCUCAGUUUTT against SLC10A5, the median seed-adjusted z-score is inactive: 0.539.

Consider CCGCUUUUGGAGUCAGUAATT against POLQ, for which the median seed-adjusted z-score is inactive: 0.203.

With GGGACAUCAAGGGAGCUAATT against MAP4K1, the median seed-adjusted z-score is inactive: 0.

As for CUGGAGAAGUCAUUGCAUUTT against RIN1, the median seed-adjusted z-score is inactive: -0.0694.

In the case of CUGUCAUUGGUUUCCCUGATT against ZNF574, the median seed-adjusted z-score was inactive: -0.528.

As to CGUUACUAAUACAAACAAATT against NACC2, the median seed-adjusted z-score was inactive: 0.144.

For the sequence CCAGAACUCCAUUCCCUGATT against HOOK2, the median seed-adjusted z-score was inactive: 0.0914.

As for CAAGAUUCCGGAAAGCGUATT against LOXL2, the median seed-adjusted z-score is inactive: 0.177.

Turning to GCUCAAAUUGUUUUGCGUUTT against AKR1D1, the median seed-adjusted z-score is inactive: 0.211.

For GGGAAUUCCUAAUACAGAUTT against B3GALTL, the median seed-adjusted z-score is inactive: -0.259.

For GAGAUUGCUCGAGACUUUATT against DDB1, the median seed-adjusted z-score was inactive: 0.231.

Turning to GCCUUUAUGCAAGUUGUAATT against NME4, the median seed-adjusted z-score was inactive: -0.155.

For ACCUGACACUGGACGGGAATT against CD14, the median seed-adjusted z-score is inactive: 0.0723.

For the sequence UGCCAAGUGUCCCUAAAGATT against CITED1, the median seed-adjusted z-score is inactive: 0.

In the case of CCACUGACACUGAAGAGCATT against DCLK3, the median seed-adjusted z-score was inactive: -0.0139.

Consider GUCACGUCUUGAUACCUCUTT against ACAD8, for which the median seed-adjusted z-score is active: 1.06.

With CCCAGAACACGAAAACUUUTT against HIF3A, the median seed-adjusted z-score is inactive: -0.0855.

Take AGGCAAUAAAGACCAGUCATT against NSUN5C: the median seed-adjusted z-score is inactive: -0.153.

In the case of CAGUAUACCGUGUUCGUGATT against PCDHA5, the median seed-adjusted z-score was inactive: 0.671.

In the case of GUACAUGUUUGAUCAUUAUTT against PPP1R3D, the median seed-adjusted z-score was inactive: 0.

CAGUUUAUCCUACACGGUUTT against SLC2A12: the median seed-adjusted z-score was inactive: -0.373.

Take CAAACGAGGUGAACGAUGATT against PYGO1: the median seed-adjusted z-score is active: -1.23.

In the case of GAAAGAUACAGGACUAUCATT against RAB3C, the median seed-adjusted z-score is inactive: 0.043.

Regarding CCUACAAUGCGCUUACUAATT against RAB4A, the median seed-adjusted z-score was inactive: 0.0022.

Regarding CGGAUCUGGUGGAACGAGATT against OGFR, the median seed-adjusted z-score was inactive: -0.565.

Regarding CCAGACCUCAUGUCACAGATT against ZNF777, the median seed-adjusted z-score was inactive: 0.128.

Regarding GGACUGGAGCUGAGUGCAATT against PTN, the median seed-adjusted z-score is inactive: -0.174.

GGUUUAUGCGGAGUGAUCATT against SP4: the median seed-adjusted z-score is inactive: -0.088.

AGAUAUGAAUGGAACGUCUTT against RBMY1F: the median seed-adjusted z-score is inactive: 0.2.

On to CGACGAUAGCUGCGGAUUUTT against NARF, for which the median seed-adjusted z-score is inactive: -0.346.

Turning to CAAUGAUUCACGUCCAAAATT against FABP9, the median seed-adjusted z-score is inactive: 0.527.

For GCAAGGAAACUCGAAUAAATT against AGRP, the median seed-adjusted z-score was inactive: 0.206.

Take ACAGCCCACUGGUCCUCAATT against MYC: the median seed-adjusted z-score is inactive: -0.543.

For the sequence GCUCAUGUUUGACAAUGCATT against SKIV2L, the median seed-adjusted z-score is inactive: 0.209.

Regarding CCGACACCUUACUACCAGATT against DNAJC16, the median seed-adjusted z-score is inactive: 0.

For GCAGAUCGGAGUCAAGUCATT against AP2A1, the median seed-adjusted z-score is inactive: 0.559.

Consider CAAGCCCUCUGAAACAGUUTT against ADRA1A, for which the median seed-adjusted z-score was active: -1.06.

Consider ACAUGUUCCUCACCUUAAATT against SLC6A1, for which the median seed-adjusted z-score is inactive: -0.122.

GGAUUCGGUUUAUGCUAGATT against NOM1: the median seed-adjusted z-score was inactive: 0.00828.

With CCGGUGACUUCCACAAGAATT against TNFRSF25, the median seed-adjusted z-score was inactive: -0.534.

As for GCGGGACAGAAGUUAGAUATT against HCCS, the median seed-adjusted z-score was inactive: 0.00254.

GCAUCCUGUCGGCUCACAATT against PYCR2: the median seed-adjusted z-score is inactive: 0.00371.

Regarding GAUUCUUCCCGGCAUCAUATT against GUCY1A3, the median seed-adjusted z-score is inactive: 0.187.

GCACGUCUUUCCCAGCAUATT against SLC26A9: the median seed-adjusted z-score is inactive: 0.223.

GCUAUUUGGUUAUCCUUAUTT against ATP6V0A1: the median seed-adjusted z-score was inactive: 0.103.

As for GAAUCAAGAAUGAUACCGATT against GRK4, the median seed-adjusted z-score is inactive: -0.267.

Turning to GCUGCUGAAAGAUAUGAAATT against SPCS3, the median seed-adjusted z-score is inactive: 0.417.

As to GGAUGGGAGCAAAUACUGATT against PRDM16, the median seed-adjusted z-score was inactive: 0.185.

CUGCGGACGGAAUCCUAUATT against TYMP: the median seed-adjusted z-score is inactive: -0.249.

On to CUGUCCACCCGGAAUGAAATT against COL9A2, for which the median seed-adjusted z-score is inactive: 0.0208.

Take CUACGAAUCUACUAACUGUTT against ZNF597: the median seed-adjusted z-score is inactive: 0.366.

For the sequence ACAUCGAGGAGCUCAUGAATT against TNNC1, the median seed-adjusted z-score was inactive: 0.442.

For the sequence GGAAAAUCUGCAACAGUUATT against STX12, the median seed-adjusted z-score was inactive: -0.797.

As for GCUCAGGCCUUAUUAGACATT against ZFP3, the median seed-adjusted z-score was inactive: 0.

On to GCAGUACAAAGGGAUCAUUTT against SLC25A4, for which the median seed-adjusted z-score was inactive: -0.379.

Turning to GCCUUGCUGAAGUCGCUCATT against CDIPT, the median seed-adjusted z-score is inactive: 0.303.

Consider GCUCAAUUCUGCAAAGAGATT against GART, for which the median seed-adjusted z-score was inactive: -0.414.

Take GAAGGAUCCUGAGCACGUATT against NR2E3: the median seed-adjusted z-score is inactive: -0.184.

Take GGGUUGGAAAGGAUUCUCATT against GSN: the median seed-adjusted z-score is inactive: -0.222.

Take CGGUCUCACCUGCACCAAATT against SSPO: the median seed-adjusted z-score is inactive: 0.397.

UGACGGAGAUGUUUCCGGATT against TOMM22: the median seed-adjusted z-score is inactive: 0.486.

Turning to UCAGCAAUUUGAAUGAGAATT against PPP1R1B, the median seed-adjusted z-score was inactive: -0.354.

As for GCCUAGCACUAGCACAAGUTT against RBM5, the median seed-adjusted z-score was inactive: -0.289.

Turning to CGAGGUUUCGCUCACCAAATT against USP35, the median seed-adjusted z-score was inactive: -0.219.

Take CAAACCAUCGUAUCACUGATT against PPP2R5B: the median seed-adjusted z-score is inactive: 0.237.

Consider GCUGUGACAUGGACCAGUUTT against LRP1, for which the median seed-adjusted z-score was inactive: -0.781.

With CCUUGUGAUUUUUACCAUUTT against F2RL2, the median seed-adjusted z-score is inactive: -0.216.

Regarding GAAGGAAUCUUGACGGAAATT against CRADD, the median seed-adjusted z-score is inactive: -0.255.

Consider CGUCCAUAGUUGAUCUAAUTT against SOCS6, for which the median seed-adjusted z-score was inactive: 0.359.

Consider GACCCAUGGUAAAAUGCAATT against TWIST1, for which the median seed-adjusted z-score was inactive: -0.159.

In the case of GGUUAUUGGUCAGUUAUGATT against GLRB, the median seed-adjusted z-score is inactive: 0.0713.

Regarding UGAUGAUAUUGCCACAUACTT against SSX1, the median seed-adjusted z-score is inactive: 0.0114.

With GGAACCAGAUCAUAAGGGATT against MAP2K1, the median seed-adjusted z-score was inactive: 0.942.

Turning to CGUUACCAGCAUCACUCUATT against FOXF2, the median seed-adjusted z-score is inactive: -0.608.

Turning to UCAUAACAGGGAUCAUGAATT against GSTK1, the median seed-adjusted z-score was inactive: 0.234.

Take GGAUUACAUGAGUAAGCAATT against HPGD: the median seed-adjusted z-score is inactive: -0.145.

Consider GCAGUGGACAUAGAAGAGATT against 4-Sep, for which the median seed-adjusted z-score is inactive: -0.0124.

Take CAUGCGGUCUUAGAAAUGATT against HNRPUL1: the median seed-adjusted z-score was inactive: -0.047.

In the case of CCACGUCCAUCAUCCAGCATT against NFIX, the median seed-adjusted z-score was inactive: 0.481.

Regarding GCUGUAACCUGUUCCUAUUTT against CALML3, the median seed-adjusted z-score was inactive: 0.

With GCCUUUACCUGUUCCGAGUTT against PTPRG, the median seed-adjusted z-score is inactive: 0.0697.

Turning to GGAUCCUUAUGUGCACAAATT against ACE2, the median seed-adjusted z-score was inactive: -0.164.

With GCAUUGGGAUUGAAGUCCATT against ARHGAP18, the median seed-adjusted z-score was inactive: 0.

On to GCUCCUUGAUAUUUUAGAATT against HUNK, for which the median seed-adjusted z-score is inactive: -0.183.

Turning to CAUGGGACCUGAUUCAAGATT against FCER2, the median seed-adjusted z-score is active: -1.75.

Take GCAUUGAUGACUUAGAAGATT against TPM1: the median seed-adjusted z-score was inactive: 0.659.

Turning to GCAAUAACAGCGUACCUAATT against CRIM1, the median seed-adjusted z-score is inactive: -0.155.

As for GGUCAUCAUUUGAUAUAUATT against TFB2M, the median seed-adjusted z-score was inactive: 0.206.

For GCAUCGACAUGUCCUGGGATT against PUF60, the median seed-adjusted z-score was active: 2.26.

With GCAGAGCUACCUAAAGGGATT against CGREF1, the median seed-adjusted z-score was inactive: 0.0743.

For the sequence CUCCUGCCUUGAGCCCUUATT against GFRA4, the median seed-adjusted z-score was active: -1.59.

For the sequence CGGACGUGAUUGAGAUGAATT against ABR, the median seed-adjusted z-score is inactive: 0.314.

As for GAAUUUAGUCCAUACGAAATT against PLA2G4A, the median seed-adjusted z-score is inactive: 0.608.

With GGUUAAUAUUGCGAAAGUATT against TXNDC1, the median seed-adjusted z-score was inactive: 0.458.

Consider CAUGAUCAAUGCUGACUUUTT against RHBG, for which the median seed-adjusted z-score was inactive: -0.126.

As for GGAACUGAAUUCAUGGACATT against XRN2, the median seed-adjusted z-score was inactive: -0.312.

GGAACAUCCUCCAUCAGAATT against MLYCD: the median seed-adjusted z-score is inactive: -0.154.

Turning to GGCAAGUAAUUAAACUGCATT against STAP1, the median seed-adjusted z-score is inactive: 0.
